Results are given in words; binding and its absence hold for the method and conditions named. Binding seen in cells or lysates may run through a third protein. A result given as binding can be weak or reduced; the word gives no strength.
How the values were obtained:
[1] = target: HA-VDAC2^A172C (on a VDAC2 ΔCys background) (mouse) (UniProt Q60930); test: cross-linking; disulphide linkage of single cysteines with 1 mM CuPhe, 30 min at 4°C, on heavy membrane fractions of Bax-/-Bak-/-Vdac2-/- MEFs; non-reducing SDS-PAGE and immunoblot
[2] = target: HA-VDAC2^ΔCys (mouse) (UniProt Q60930); test: co-IP; HA-VDAC2 ΔCys precipitated with anti-HA beads from 1% digitonin-solubilised membrane fractions of Bak-/-Bax-/-Vdac2-/- MEFs, with or without labelling by 0.5 mM 5 kDa PEG-maleimide (30 min, room temperature) beforehand

Amino acid sequences for entries named in this document (tags omitted). A change or cut given only in a name is not applied to a line headed by its entry.
UniProt Q60930: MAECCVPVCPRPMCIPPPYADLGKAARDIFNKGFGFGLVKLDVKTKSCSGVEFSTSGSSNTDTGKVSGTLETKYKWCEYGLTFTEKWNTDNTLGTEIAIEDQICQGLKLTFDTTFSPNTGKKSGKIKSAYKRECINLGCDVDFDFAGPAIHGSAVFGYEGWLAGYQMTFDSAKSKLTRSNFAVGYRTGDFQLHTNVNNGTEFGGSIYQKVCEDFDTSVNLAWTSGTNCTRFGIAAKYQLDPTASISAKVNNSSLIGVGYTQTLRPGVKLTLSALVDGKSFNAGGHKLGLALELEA

Binder	binding [1]	binding [2]
BAK^R88C (on BAK ΔCys) (protein, UniProt Q16611 1-211) MASGQGPGPPRQESGEPALPSASEEQVAQDTEEVFRSYVFYRHQQEQEAEGVAAPADPEMVTLPLQPSSTMGQVGRQLAIIGDDINRCYDSEFQTMLQHLQPTAENAYEYFTKIATSLFESGINWGRVVALLGFGYRLALHVYQHGLTGFLGQVTRFVVDFMLHHSIARWIAQRGGWVAALNLGNGPILNVLVVLGVVLLGQFVVRRFFKS	binds	–
BAK D84C (on BAK ΔCys) (protein, UniProt Q16611 1-211) MASGQGPGPPRQESGEPALPSASEEQVAQDTEEVFRSYVFYRHQQEQEAEGVAAPADPEMVTLPLQPSSTMGQVGRQLAIIGDCINRRYDSEFQTMLQHLQPTAENAYEYFTKIATSLFESGINWGRVVALLGFGYRLALHVYQHGLTGFLGQVTRFVVDFMLHHSIARWIAQRGGWVAALNLGNGPILNVLVVLGVVLLGQFVVRRFFKS	binds	–
BAK I85C (on BAK ΔCys) (protein, UniProt Q16611 1-211) MASGQGPGPPRQESGEPALPSASEEQVAQDTEEVFRSYVFYRHQQEQEAEGVAAPADPEMVTLPLQPSSTMGQVGRQLAIIGDDCNRRYDSEFQTMLQHLQPTAENAYEYFTKIATSLFESGINWGRVVALLGFGYRLALHVYQHGLTGFLGQVTRFVVDFMLHHSIARWIAQRGGWVAALNLGNGPILNVLVVLGVVLLGQFVVRRFFKS	binds	–
BAK E92C (on BAK ΔCys) (protein, UniProt Q16611 1-211) MASGQGPGPPRQESGEPALPSASEEQVAQDTEEVFRSYVFYRHQQEQEAEGVAAPADPEMVTLPLQPSSTMGQVGRQLAIIGDDINRRYDSCFQTMLQHLQPTAENAYEYFTKIATSLFESGINWGRVVALLGFGYRLALHVYQHGLTGFLGQVTRFVVDFMLHHSIARWIAQRGGWVAALNLGNGPILNVLVVLGVVLLGQFVVRRFFKS	binds	–
BAK S117C (on BAK ΔCys) (protein, UniProt Q16611 1-211) MASGQGPGPPRQESGEPALPSASEEQVAQDTEEVFRSYVFYRHQQEQEAEGVAAPADPEMVTLPLQPSSTMGQVGRQLAIIGDDINRRYDSEFQTMLQHLQPTAENAYEYFTKIATCLFESGINWGRVVALLGFGYRLALHVYQHGLTGFLGQVTRFVVDFMLHHSIARWIAQRGGWVAALNLGNGPILNVLVVLGVVLLGQFVVRRFFKS	binds	–
BAK S121C (on BAK ΔCys) (protein, UniProt Q16611 1-211) MASGQGPGPPRQESGEPALPSASEEQVAQDTEEVFRSYVFYRHQQEQEAEGVAAPADPEMVTLPLQPSSTMGQVGRQLAIIGDDINRRYDSEFQTMLQHLQPTAENAYEYFTKIATSLFECGINWGRVVALLGFGYRLALHVYQHGLTGFLGQVTRFVVDFMLHHSIARWIAQRGGWVAALNLGNGPILNVLVVLGVVLLGQFVVRRFFKS	binds	–
BAK^Y89C (on BAK ΔCys) (protein, UniProt Q16611 1-211) MASGQGPGPPRQESGEPALPSASEEQVAQDTEEVFRSYVFYRHQQEQEAEGVAAPADPEMVTLPLQPSSTMGQVGRQLAIIGDDINRRCDSEFQTMLQHLQPTAENAYEYFTKIATSLFESGINWGRVVALLGFGYRLALHVYQHGLTGFLGQVTRFVVDFMLHHSIARWIAQRGGWVAALNLGNGPILNVLVVLGVVLLGQFVVRRFFKS	binds	–
BAK^ΔCys (C14S/C166S) (protein, UniProt Q16611 1-211) MASGQGPGPPRQESGEPALPSASEEQVAQDTEEVFRSYVFYRHQQEQEAEGVAAPADPEMVTLPLQPSSTMGQVGRQLAIIGDDINRRYDSEFQTMLQHLQPTAENAYEYFTKIATSLFESGINWGRVVALLGFGYRLALHVYQHGLTGFLGQVTRFVVDFMLHHSIARWIAQRGGWVAALNLGNGPILNVLVVLGVVLLGQFVVRRFFKS	–	binds
BAK^G4C (on BAK ΔCys) (protein, UniProt Q16611 1-211) MASCQGPGPPRQESGEPALPSASEEQVAQDTEEVFRSYVFYRHQQEQEAEGVAAPADPEMVTLPLQPSSTMGQVGRQLAIIGDDINRRYDSEFQTMLQHLQPTAENAYEYFTKIATSLFESGINWGRVVALLGFGYRLALHVYQHGLTGFLGQVTRFVVDFMLHHSIARWIAQRGGWVAALNLGNGPILNVLVVLGVVLLGQFVVRRFFKS	–	binds
BAK G4C labelled with PEG-maleimide (5 kDa) (protein, UniProt Q16611 1-211, 5 kDa PEG-maleimide on the cysteine at 4) MASCQGPGPPRQESGEPALPSASEEQVAQDTEEVFRSYVFYRHQQEQEAEGVAAPADPEMVTLPLQPSSTMGQVGRQLAIIGDDINRRYDSEFQTMLQHLQPTAENAYEYFTKIATSLFESGINWGRVVALLGFGYRLALHVYQHGLTGFLGQVTRFVVDFMLHHSIARWIAQRGGWVAALNLGNGPILNVLVVLGVVLLGQFVVRRFFKS	–	binds
BAK^R156C (on BAK ΔCys) (protein, UniProt Q16611 1-211) MASGQGPGPPRQESGEPALPSASEEQVAQDTEEVFRSYVFYRHQQEQEAEGVAAPADPEMVTLPLQPSSTMGQVGRQLAIIGDDINRRYDSEFQTMLQHLQPTAENAYEYFTKIATSLFESGINWGRVVALLGFGYRLALHVYQHGLTGFLGQVTCFVVDFMLHHSIARWIAQRGGWVAALNLGNGPILNVLVVLGVVLLGQFVVRRFFKS	–	binds
BAK R156C labelled with PEG-maleimide (5 kDa) (protein, UniProt Q16611 1-211, 5 kDa PEG-maleimide on the cysteine at 156) MASGQGPGPPRQESGEPALPSASEEQVAQDTEEVFRSYVFYRHQQEQEAEGVAAPADPEMVTLPLQPSSTMGQVGRQLAIIGDDINRRYDSEFQTMLQHLQPTAENAYEYFTKIATSLFESGINWGRVVALLGFGYRLALHVYQHGLTGFLGQVTCFVVDFMLHHSIARWIAQRGGWVAALNLGNGPILNVLVVLGVVLLGQFVVRRFFKS	–	binds
BAK^N124C (on BAK ΔCys) (protein, UniProt Q16611 1-211) MASGQGPGPPRQESGEPALPSASEEQVAQDTEEVFRSYVFYRHQQEQEAEGVAAPADPEMVTLPLQPSSTMGQVGRQLAIIGDDINRRYDSEFQTMLQHLQPTAENAYEYFTKIATSLFESGICWGRVVALLGFGYRLALHVYQHGLTGFLGQVTRFVVDFMLHHSIARWIAQRGGWVAALNLGNGPILNVLVVLGVVLLGQFVVRRFFKS	binds	binds
